Measurements from patent US20190062386A1 (UNIVERSITY OF NORTH CAROLINA AT CHAPEL HILL, published 2019).
Results are given in words; binding and its absence hold for the method and conditions named. Binding seen in cells or lysates may run through a third protein. Some binding calls cover weakened binding; strength is not graded here. Tags and fused reporters may be left off the sequences shown.

Sequences of proteins named here, by UniProt entry; tags and fusion partners are left off.
UniProt Q96D31: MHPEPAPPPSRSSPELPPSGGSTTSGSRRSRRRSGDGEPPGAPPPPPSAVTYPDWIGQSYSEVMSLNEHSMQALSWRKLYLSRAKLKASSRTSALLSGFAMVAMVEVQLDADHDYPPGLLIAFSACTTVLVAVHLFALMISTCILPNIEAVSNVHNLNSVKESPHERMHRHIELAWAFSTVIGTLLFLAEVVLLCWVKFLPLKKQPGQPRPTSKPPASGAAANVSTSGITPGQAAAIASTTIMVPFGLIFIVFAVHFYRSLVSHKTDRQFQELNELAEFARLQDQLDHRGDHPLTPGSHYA

Columns and labels:
[1] = target: HA tagged human Orai1 (human) (UniProt Q96D31); assay: co-immunoprecipitation from lysates of cotransfected HEK293T cells
[2] = target: HA tagged human Orai1 (human) (UniProt Q96D31); assay: co-immunoprecipitation in both directions (anti-V5, anti-HA), HEK293T lysates, immunoblot

binding [1]: binds
binding [2]: binds
B1: V5-SPLUNC1 (other, not shown: small tags and cut ends)
chain: QFGGLPVPLDQTLPLNVNPALPLSPTGLAGSLTNALSNGLLSGGLLGILENLPLLDILKPGGGTSGGLLGGLLGKVTSVIPGLNNIIDIKVTDPQLLELGLVQSPDGHRLYVTIPLGIKLQVNTPLVGASLLRLAVKLDITAEILAVRDKQERIHLVLGDCTHSPGSLQISLLDGLGPLPIQGLLDSLTGILNKVLPELVQGNVCPLVNEVLRGLDITLVHDIVNMLIHGLQFVIKV
notes: Expressed in HEK293T cells and tested in cell lysates; The tag is placed first only because the name is printed that way; also called pcDNA3.1(+)-V5-SPLUNC1
